Test results from patent US12201619B2, “Compounds and methods for use in the treatment of microglia-mediated disorders” (NSC Therapeutics GmbH, priority 2018, dated 2025).
Some results were stated once for a whole list of compounds, not compound by compound.

Test system: human blood-derived macrophages
Experiment: Cell viability (PrestoBlue) of blood-derived human macrophages
Format: cell-based
Settings: after 24 hours
Protocol: Human blood-derived macrophages were isolated from buffy coat via standard protocols (Monocyte isolation Kit, 130091153, Miltenyi Biotec GmbH, Germany) and differentiated for 9 days in M-CSF medium (Ser. No. 12/065,074, Thermo Fisher, Switzerland,) supplemented with 125 ng/ml human GM-CSF (130093864, Miltenyi Biotec GmbH, Germany) to induce M1 macrophage differentiation. Upon differentiation, cells were harvested and re-seeded at 1 Mio cells per 24-well. […] Cell viability was detected by absorbance measurements utilizing the PrestoBlue colorimetric assay (PrestoBlue Cell Viability Reagent, A13261, Thermo Fisher, Switzerland). Cell viability was assessed directly after compound application at 0 h and after 1 h, 3 h and 24 h.

## CCCCCCCCCCCCCC(=O)O[C@@H]1[C@@H](C)[C@@]2(O)[C@@H](C=C(CO)C[C@]3(O)C(=O)C(C)=C[C@@H]23)[C@@H]2C(C)(C)[C@]12OC(C)=O [PMA, Phorbol myristate acetate]
  increased cell viability compared to medium control: up to 30%
